Assay results reported in US20240366649A1, “4-ETHYNYL-3-HYDROXY-TETRAHYDROFURANYL-ADENINE PHOSPHORAMIDATES AND RELATED COMPOUNDS AND THEIR USE IN TREATING MEDICAL CONDITIONS” (ROME THERAPEUTICS, INC., priority 2021, published 2024).
Certain results were filed several times, with different values. The list is limited to them. An entry can have further records. Results that share an entry do not match, cause unknown; dose, time, organism, isomer or construct need not be as stated for each record.

Test system: IFN production in THP1 TREX1 KO cells
Assay: Cellular assay for altering IFN production in THP1 TREX1 KO cells
Details: read-out: IFN EC50; inducers of IFN; in the presence of 1 μM 5-aza-2′-deoxycytidine, five days
Experimental: THP1-Dual™ KO-TREX1 cells were purchased from Invivogen (cat #thpd-kotrex). The THP1-Dual™ KO-TREX1 cells were cultured in RPMI 1640, 10% heat-inactivated fetal bovine serum, 25 mM HEPES, 10 μg/mL Blasticidin, and […] Zeocin. THP1-Dual™ KO-TREX cells were treated with a dose titration of test compound in the presence of 1 μM 5-aza-2′-deoxycytidine (Sigma, cat #189825). Type 1 Interferon and cell viability were assessed after five days of treatment.
Stock solution of test compound was prepared in DMSO followed by a three-fold dilution in DMSO. Additional 50× dilution was prepared in cell culture media for each dilution. 10 μL of diluted test compound was then added to a 384-well plate.
THP1-Dual™ KO-TREX1 cells were treated with 1 μM 5-aza-2′-deoxycytidine. THP1-Dual™ KO-TREX1 cells (50 μL) were added to each well of the 384-well plate containing test compound titration at 10,000 cells/well. Cells were incubated at 37° C., 5% CO2 in a humidified incubator for five days. On day five, 20 μL of cell supernatant was transferred to a 384-well, white-walled plate, followed by addition to each well of 50 μL of QUANTI-LUC solution containing stabilizer. Luminescence was detected on a plate reader according to manufacturer's instructions. […]

Compound: C#C[C@]1(COP(=O)(N[C@@H](C)C(=O)OCc2ccccc2)Oc2ccccc2)O[C@@H](n2cnc3c(N)nc(F)nc32)C[C@@H]1O (stereo partly shown)
- EC50: < 1 µM and > 10 µM
